In all, about 390,000 compounds went through this assay and about 4,000 (1%) were called active. Inconclusive results, whose numbers are uncertain, are shown with a selection of clear calls. Calls come from the whole dose curve; as a rule, active = well fitted inhibition curve with a large enough effect; inconclusive = small, poorly fitted or top-dose-only effect, or another doubt; inactive = no such curve, though single readings can be large or run the other way. Where the call is inconclusive, the potency comes from a doubtful curve fit.
What follows are compounds tested against DNA polymerase iota (Homo sapiens) (UniProt Q9UNA4) (assay: qHTS for Inhibitors of Polymerase Iota). Details: Pol iota fluorescent replication assay, 10 min; series mostly up to 115 µM.
Summary of the method: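 Pol iota at 10 nM preincubated 15 min with compounds at room temperature; reaction started with fluorescent substrate, 50 nM final. Fluorescence read kinetically at 0 and 10 min; buffer-only wells as negative control.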
Potency is the fitted concentration of half-maximal effect.

Chains of the proteins cited; added tags and fusions are not shown. Lines headed by an entry give the natural chain unless they say otherwise; changes in a name come on top.
UniProt Q9UNA4: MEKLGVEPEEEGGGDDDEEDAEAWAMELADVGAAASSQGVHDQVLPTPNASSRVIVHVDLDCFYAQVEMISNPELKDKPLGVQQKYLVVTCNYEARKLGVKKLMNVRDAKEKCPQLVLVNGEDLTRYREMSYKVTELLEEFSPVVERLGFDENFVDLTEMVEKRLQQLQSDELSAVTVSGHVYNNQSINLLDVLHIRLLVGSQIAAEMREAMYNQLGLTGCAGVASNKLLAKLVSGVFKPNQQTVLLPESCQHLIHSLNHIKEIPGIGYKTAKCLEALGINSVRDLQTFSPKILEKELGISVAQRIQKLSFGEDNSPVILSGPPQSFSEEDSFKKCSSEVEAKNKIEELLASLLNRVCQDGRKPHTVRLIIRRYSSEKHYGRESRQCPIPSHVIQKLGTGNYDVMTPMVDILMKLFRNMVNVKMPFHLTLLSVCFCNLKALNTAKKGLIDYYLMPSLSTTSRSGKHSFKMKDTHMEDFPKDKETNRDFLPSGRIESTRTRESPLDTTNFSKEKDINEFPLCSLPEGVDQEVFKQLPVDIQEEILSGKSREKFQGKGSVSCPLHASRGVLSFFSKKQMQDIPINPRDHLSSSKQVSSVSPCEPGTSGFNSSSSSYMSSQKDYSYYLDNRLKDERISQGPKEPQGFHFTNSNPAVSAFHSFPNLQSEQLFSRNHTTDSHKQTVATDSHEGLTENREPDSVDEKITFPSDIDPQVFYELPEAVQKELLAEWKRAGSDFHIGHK

Compound	Potency
Cc1cnc(C(=O)Nc2cccc3cccnc23)cn1	inconclusive: 25.1 µM [inhibitor, single point]
O=C(O)CC/C(=C\c1cc2c(cc1Br)OCO2)c1nc2ccccc2s1	inconclusive: 14.1 µM [inhibitor, partial curve, poor fit]
O=C1C2CCCCC2C(=O)N1c1cccc(OS(=O)(=O)c2ccccc2)c1 (configuration not stated)	inactive
COc1ccccc1C1N=C(Nc2nc3ccccc3o2)NC2=C1C(=O)CC(C)(C)C2 (configuration not stated)	inactive
COc1ccc(N(CC(=O)N/N=C/c2cccc(OC)c2OC)S(=O)(=O)c2ccccc2)cc1	inactive
CCCN1C(=O)C2(c3ccccc31)c1c(oc3ccc(C)cc3c1=O)C(=O)N2CCOC (configuration not stated)	inconclusive: 89.1 µM [inhibitor, single point]
CCOC(=O)N1C(=O)[C@@](c2ccc(Cl)cc2)(C(C)C)N1C(=O)OCC	inconclusive: 28.2 µM [inhibitor, partial curve, poor fit]
Cc1ccccc1C(=O)NCC(=O)OC(C)C(=O)Nc1ccnn1C(C)C (configuration not stated)	inconclusive: 89.1 µM [inhibitor, single point]
O=C(CSc1nnc(NC(=O)C2CC(=O)N(c3ccc(F)cc3)C2)s1)NCc1ccco1 (configuration not stated)	inconclusive: 11.2 µM [inhibitor, full curve, poor fit]
Cc1cc(-c2ccc(/C=N/n3cnnc3)o2)c(C)c([N+](=O)[O-])c1	inconclusive: 79.4 µM [inhibitor, single point]
CCOCCn1c(CN2CCC(Cc3ccccc3)CC2)nc2c1c(=O)n(C)c(=O)n2C	inconclusive: 89.1 µM [inhibitor, single point]
O=C(NC(=O)c1ccccc1)Nc1ccc(-c2cnco2)cc1	inconclusive: 39.8 µM [inhibitor, partial curve, poor fit]
C=CCn1c(SCC(=O)c2ccc(O)c(O)c2)nnc1-c1cccc(C)c1	active: 79.4 µM
Cc1ccc(Cl)c2sc(N3CCN(C(=O)c4ccco4)CC3)nc12	inconclusive: 39.8 µM [inhibitor, single point]
CCOC(=O)C1CCCN(C2=NC(=O)/C(=C/c3ccc(OC)cc3OC)S2)C1 (configuration not stated)	inactive
CC(NC(=O)COC(=O)/C=C/c1ccco1)c1ccccc1 (configuration not stated)	inconclusive: 12.6 µM [inhibitor, partial curve, poor fit]
Nc1cc(S(=O)(=O)O)cc([N+](=O)[O-])c1O	active: 7.94 µM
CC(C)CCNC(=O)C1CCN(Cc2cccc(OCc3ccccc3)c2)CC1	inconclusive: 56.2 µM [inhibitor, partial curve, poor fit]
COc1ccc(CCNc2ccc(C(CC(N)=O)NC(=O)c3ccc(Br)cc3)cc2[N+](=O)[O-])cc1 (configuration not stated)	inconclusive: 44.7 µM [inhibitor, partial curve, poor fit]
N#Cc1ccsc1NC(=O)CSc1nnnn1-c1ccc(O)cc1	inconclusive: 20 µM [inhibitor, full curve, poor fit]
CC12c3ccccc3C(c3ccccc31)C1C(=O)N(Cc3cccnc3)C(=O)C12 (configuration not stated)	inconclusive: 79.4 µM [inhibitor, single point]

As entered above:
Entry of `COc1ccc(CCNc2ccc(C(CC(N)=O)NC(=O)c3ccc(Br)cc3)cc2[N+](=O)[O-])cc1` (configuration not stated) under Potency: inconclusive: 44.7 µM [inhibitor, partial curve, poor fit]
Entry of `COc1ccccc1C1N=C(Nc2nc3ccccc3o2)NC2=C1C(=O)CC(C)(C)C2` (configuration not stated) under Potency: inactive
Entry of `CCOC(=O)C1CCCN(C2=NC(=O)/C(=C/c3ccc(OC)cc3OC)S2)C1` (configuration not stated) under Potency: inactive

Next part:

Compound	Potency
CN(C)c1ccc(/C=C/c2ccnc3ccccc23)cc1Br	inactive
BrC(=C\c1ccccc1)/C=N/N1CCN(c2ccccc2)CC1	inconclusive: 20 µM [inhibitor, full curve, poor fit]
COC(=O)c1c(NC(=O)c2ccoc2C)sc2c1CCC2	inconclusive: 10 µM [inhibitor, full curve, poor fit]
O=C(COC(=O)c1ccccc1O)Nc1cccc2ccccc12	inconclusive: 89.1 µM [inhibitor, partial curve, poor fit]
CCN1C(=O)[C@@H]2[C@@H](c3ccc(-c4ccc(C(C)=O)cc4)cc3)N3CCC[C@@]3(C(=O)OC)[C@@H]2C1=O	inconclusive: 31.6 µM [inhibitor, single point]
Cc1c(C(=O)N(Cc2ccco2)Cc2cccs2)oc2ccccc12	active: 39.8 µM
Cc1ccc(S(=O)(=O)NCc2ccccc2)cc1C(=O)NCC1CCCO1 (configuration not stated)	inconclusive: 89.1 µM [inhibitor, single point]
COc1cccc(NC(=O)CSc2nnc3[nH]c(=O)cc(-c4ccccc4)n23)c1	inconclusive: 89.1 µM [inhibitor, single point]
COc1cc(/C=N\N=C2/SC(CC(=O)O)C(=O)N2c2ccc(O)cc2)ccc1O (configuration not stated)	inactive
O=C(Cn1nnc(-c2ccc3c(c2)OCO3)n1)NCc1ccco1	inconclusive: 15.8 µM [inhibitor, partial curve, poor fit]
O=C(CSc1nc2ccccc2[nH]1)c1cccs1	inconclusive: 39.8 µM [inhibitor, single point]
Cc1ccc(C)c(-c2ccc(=O)n(C(C)C(=O)Nc3ccccc3C(F)(F)F)n2)c1 (configuration not stated)	inactive
C1=Cc2ccccc2/C1=C\c1cc[cH-]c1.[Fe+2].c1cc[cH-]c1	active: 1.78 µM
Cn1nc(C(=O)NCCc2ccc(S(N)(=O)=O)cc2)c2ccccc2c1=O	inactive
Cc1ccccc1CS(=O)(=O)Cc1ccc(C(=O)NC2CCCCC2)o1	inconclusive: 89.1 µM [inhibitor, single point]
COC(=O)c1ccccc1NC(=O)CCn1c(=O)c2cccn2c2cccnc21	inactive
COc1ccc(/C=C/C(=O)O)cc1S(=O)(=O)NCc1ccccc1	inconclusive: 35.5 µM [inhibitor, partial curve, poor fit]
CCCCNC(=O)c1onc(CSc2cccc3ccccc23)c1C(=O)O	inconclusive: 50.1 µM [inhibitor, partial curve, poor fit]
CN(C)C1=NCCN1CCCC1CCCC1	inconclusive: 39.8 µM [inhibitor, single point]
COc1cccc(C(=O)OCC(=O)Nc2ccc(N3CCOCC3)cc2)c1	inactive
COc1ccc(Oc2ccc(C(F)(F)F)cc2NC(=O)c2ccc(C)cc2)cc1	inconclusive: 22.4 µM [inhibitor, partial curve, poor fit]

Source: PubChem BioAssay AID588590 (National Center for Advancing Translational Sciences (NCATS), 2011)
